Screening data, single-dose tests

Mtb glucose medium: 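Growth of Mycobacterium tuberculosis over 3 days (7H9 medium with glucose and tyloxapol); the read-out is not stated. Tested at 50 µM. Direction is inferred from retests: higher values go with more growth inhibition. Size under these conditions: about 69,000 compounds, about 760 of them at 50% or above in at least one test.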
Mtb cholesterol medium: 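Whole-cell growth test on Mycobacterium tuberculosis, read after 4 days in a medium based on cholesterol and the lipid DPPC; the read-out is not stated. Tested at 50 µM. Higher reads as more growth inhibition (inferred: compounds with an IC50 in retests scored well above the rest). About 69,000 compounds were tested under these conditions; 0.54% (about 370) showed 50% or more at least once.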

Values are the deposited “Percent Effect”, in %. The record does not define 0% and 100%; most values in the screen are far below 50% and negative numbers occur (in some assays of this library far below -100). This is an unselected part of the compounds tested. Two or more numbers in one place are separate tests of the same structure; such repeats can differ widely.

Compound,Mtb glucose medium,Mtb cholesterol medium
CCCS(=O)(=O)N1CCC2(CC1)CN(c1ccccn1)CCO2.O=C(O)C(F)(F)F,-27.32,-25.44
O=C(CN1CCC(c2nnc(C(F)(F)F)o2)CC1)NCc1ccccc1,-82.92,-8.953
COc1ncc(NCc2ccc(F)cc2)cc1C(N)=O,9.287,11.54
CCOCn1cc(NC(=O)C2CCN(S(C)(=O)=O)CC2)cn1,-8.776,-4.873
O=C1CC(c2ccc(O)cc2)c2sc(C(=O)O)c(-c3ccccc3)c2N1 (configuration not stated),-20.89,-12.01
O=C(Nc1ccccc1OCCc1ccccn1)NC1CCOCC1,31.55,-19.02
Cc1ccc2nc(NCCCN3CCCCCC3=O)n(C)c(=O)c2c1,18.17,-0.3241
CCN1CCCC(c2cc(Nc3cnccn3)nc(C)n2)C1 (configuration not stated),-1.202,-5.708
Cc1ccc(C(=O)NCCN2CCOCC2)cc1N(C)S(C)(=O)=O,-15.21 & -2.36,-15.98
CNC(=O)CN(C(=O)c1cc(C(C)C)no1)c1cccc(F)c1,-21.91 & -7.92,-18.16
Cc1cc(CNCC2Cn3nnc(C)c3CO2)oc1C.O=C(O)C(F)(F)F (configuration not stated),-6.165 & 3.611,10.91
Cc1n[nH]cc1CNc1ccc2c(c1)CN(C(=O)OC(C)(C)C)CC2,29.52,-1.714
CCc1ccc(C(=O)NCCNc2ncccn2)cc1,-4.069,-21.53
CCCN(CCC)S(=O)(=O)N(C)Cc1ccncc1,8.925,2.275
[H][C@]12CN(CC3CC3)C(=O)[C@@]1([H])CN(c1ncccn1)C2,-15.83,-15.4
C=Cc1ccc(C(=O)N2CCCC(Nc3ccc(F)cc3)C2)cc1 (configuration not stated),39,31.05
CCc1cc(C(F)(F)F)n2nc(C3CCCN3C(=O)COC)cc2n1 (configuration not stated),-4.641,0.7581 & -1.507
CC(C)C(C)NC(=O)CCN1C(=O)CCc2cc(F)ccc21 (configuration not stated),-23.75,-4.223
COc1cccnc1-c1ccc(F)c2c1OC(CN)C2 (configuration not stated),-27.47,-2.068
O=C(NCc1nc(C2CC2)no1)N1CCOC(c2ccccc2)C1 (configuration not stated),-5.496 & 0.4043,10.2
CCc1ccc(C(=O)NCc2ccnc(N3CCN(C)CC3)c2)o1,22.23,-0.7455
O=C(NCC1(O)COCCN(Cc2cccc(O)c2)C1)c1cnccn1 (configuration not stated),4.456,-1.415
CC(C)Nc1ncnc2c1CCN(c1cc(C(F)(F)F)ncn1)CC2,-16.54 & -2.226,-22.06
COc1ccccc1C(O)CNC(=O)NCc1cc[nH]n1 (configuration not stated),1.729,-19.44
O=C1CCCCN1CCCNCc1cnc(C2CCC2)s1,5.919,-11.23 & 14.16
O=S(=O)(Nc1ccon1)c1cc(Cl)cc2c1OCC2,13.98 & 33.24,5.251
COc1ccc(C2=Nn3c(CN)nnc3-c3ccccc3C2)cc1,9.481,2.393
CC(=O)Nc1cccc([C@H]2C[C@@H](NC(C)=O)CCO2)c1,5.104,-1.946 & 3.777
Cn1cc(CN2CCC3(CCCN(C(=O)c4cnccn4)C3)C2)cn1 (configuration not stated),-10.06 & -0.5861,7.69
CC(C)CC(CO)NS(=O)(=O)Cc1ccon1 (configuration not stated),17,-11
O=C(c1ncoc1C1CCCO1)N1CCCC2(CCCCC2)C1 (configuration not stated),-10.28,-4.255
CC(C#N)CSc1ccccc1NCC(=O)Nc1ccccc1 (configuration not stated),-0.7534 & -53.23,-36.86
CCc1nc(C2CCCN2Cc2cnc(C)cn2)no1 (configuration not stated),13.14,-13.05
Cc1nnc(SCC(=O)NCC(c2ccccc2Cl)N(C)C)s1 (configuration not stated),-2.197,-11.42
Cc1cc(C(F)(F)F)cc(=O)n1Cc1nc(C(C)C)no1,-20.11 & -4.632,-1.15
CCCc1nc(Cn2c(=O)n(C)c3ccccc32)no1,24.09,14.26
O=C(O)C(F)(F)F.[H][C@]12CCN(c3ncc(CC)cn3)CC[C@@]1([H])S(=O)(=O)N(CCC(C)C)C2,-7.028 & 9.04,-2.171
N#CCCN(CC1CCCO1)C(=O)c1ccc2nonc2c1 (configuration not stated),-18.5,-23.2
CN(CCc1ccccc1)Cc1c(C2CCNCC2)[nH]c2ncccc12.Cl,-1.51,12.65 & -16.03
CC(C)CN1CCC(c2nc3c([nH]2)CC(C)(C)CNC3=O)C1 (configuration not stated),2.179,15.02
O=C(c1c(O)cnc2ccccc12)N1CCN(CC(F)F)CC1,-28.54,-22.29
CC(C)(C)c1coc([C@@H]2COCCN2Cc2ccccc2)n1,5.289 & 27.64,10.54

The values are deposited in ChEMBL (CHEMBL3988442, “University of Dundee, Small-Polar-MMV Screening Library” (2021)).